Screening data, single-dose tests

Sequences of proteins named here, by UniProt entry; tags and fusion partners are left off. Residues count along the entry.
UniProt Q4DA54, 1-478: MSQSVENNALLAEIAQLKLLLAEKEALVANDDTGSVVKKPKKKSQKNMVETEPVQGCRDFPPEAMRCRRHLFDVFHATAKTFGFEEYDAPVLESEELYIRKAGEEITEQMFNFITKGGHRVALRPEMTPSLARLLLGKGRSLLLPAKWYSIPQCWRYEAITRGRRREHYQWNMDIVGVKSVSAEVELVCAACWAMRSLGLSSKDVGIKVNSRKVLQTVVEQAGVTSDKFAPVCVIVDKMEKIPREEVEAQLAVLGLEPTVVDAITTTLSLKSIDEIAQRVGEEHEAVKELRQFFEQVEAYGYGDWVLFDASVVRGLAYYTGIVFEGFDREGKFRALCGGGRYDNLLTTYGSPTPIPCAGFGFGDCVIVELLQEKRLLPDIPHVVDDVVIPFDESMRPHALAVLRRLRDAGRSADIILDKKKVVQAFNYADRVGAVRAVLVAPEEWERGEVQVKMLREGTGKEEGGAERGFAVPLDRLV

From ChEMBL document CHEMBL3988442, “University of Dundee, Small-Polar-MMV Screening Library” (2021).

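Enzyme assay of histidyl-tRNA synthetase; the read-out is not stated. Target: Histidine-tRNA ligase, Trypanosoma cruzi CL Brener (UniProt Q4DA54). Compounds at 30 µM. The record gives no direction; compounds that gave an IC50 in retests scored well above the rest, so higher reads as stronger inhibition. Size under these conditions: about 69,000 compounds, about 31 of them at 50% or above in at least one test.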

Results are given as percent effect.
How 0% and 100% were set is not recorded. Most values in the screen are low, and negative values occur.
Compounds were drawn at random from those tested, without regard to their results.

| SMILES | Percent Effect |
|---|---|
| `O=C(c1ccc(=O)[nH]c1)N1C[C@@H]2CC[C@H](C1)N(Cc1ccccc1)C2` | 4.02 |
| `N#Cc1cc(NC(=O)C2CC=CC2)ccc1N1CCC(O)CC1` | -2.5 |
| `CCN(CC(=O)NC(C)C)S(=O)(=O)N1CCC(C)C1` (stereo not shown) | -1.695 |
| `CC(C)N1CCOC[C@H]1c1nc(-c2ccncc2)c[nH]1` | -0.4975 |
| `CC(C)N1CCOC(c2cc(CCO)[nH]n2)C1` (stereo not shown) | 2.273 |
| `Cn1cc(CN2CC[C@@H]3[C@@H](CCC(=O)N3CC3CCNCC3)C2)cn1` | 6.122 |
| `CCOC(=O)c1sc2ccsc2c1CNC(=O)C(C)(C)C#N` | -1.149 |
| `O=C1COC2(CCN(c3ncccn3)CC2)CN1Cc1ccccn1` | 2.4 |
| `CCOCCN1Cc2cnn(C)c2C(COCC)C1` (stereo not shown) | 2.956 |
| `Cc1cc(=O)n2ncnc2n1CC(O)c1ccccc1F` (stereo not shown) | 0 |
| `COCC(c1cccc(C(F)(F)F)c1)N(C)C(=O)c1cccnc1` (stereo not shown) | 8.284 |
| `CC(=O)N1CCC(CCNC(C)c2cc(C)cc(C)c2)CC1` (stereo not shown) | 0 |
| `O=C(C1CC1)N1CCC2(CCCN2Cc2ccc(F)cc2)CC1` | 6.796 |
| `O=C(COc1coc(CN2CCCCC2)cc1=O)c1ccccc1` | 2.439 |
| `CCn1c(C)cc(C(=O)N2C[C@@H](C(=O)O)[C@H](c3ccccc3C)C2)c1C` | 14.91 |
| `CCC(C)c1csc(NC(=O)Cc2csc(-c3nnc[nH]3)n2)n1` (stereo not shown) | 13.94 |
| `Cn1cc(NC(=O)NCc2ccsc2)ccc1=O` | 72.73 |
| `CN1C[C@H]2CNC[C@@]2(C(=O)N2CCN(c3ncccc3C#N)CC2)C1` | 7.2 |
| `Cc1csc(CCNC(=O)c2ccc(N(C)C)c(F)c2)n1` | 2.941 |
| `Cc1nc(C)c(CCNc2ccc(S(N)(=O)=O)cc2C#N)s1` | 0.5848 |
| `Cn1c(CCN2CCN(c3ccc(O)cc3)CC2)nc2ccccc21` | 0.5848 |
| `CCc1ccc(C2CC(=O)Nc3c2c(=O)[nH]n3C(C)C)cc1` (stereo not shown) | -2.424 |
| `Cc1nccn1-c1ccc(CNC(=O)c2ccc[nH]2)cn1` | 7.514 |
| `CC(=O)N1CC[C@H]2OCC[C@@H](C(=O)Nc3cccnc3C)[C@@H]2C1` | 12.85 |
| `COCc1noc(Cn2ccc3ccccc3c2=O)n1` | 5.051 |
| `COc1ccc(S(=O)(=O)NC(=O)COC2CCCCC2)cc1` | 2.874 |
| `O=C(Nc1cc(-c2ccccc2)on1)N1CCN(CCO)CC1` | 2.564 |
| `CC(C)NC(=O)CNC(C)c1c(F)cccc1Cl` (stereo not shown) | 0.6135 |
| `COc1ccc(F)c(-c2nccn2CCN2CCCC2)c1` | 3.247 |
| `O[C@@H]1C[C@@H](c2nc(-c3ccccc3)no2)N(C2CCOCC2)C1` | -3.261 |
| `Cc1cc(CNC(=O)N2CCc3ccccc3C2CO)c(C)o1` (stereo not shown) | 6.667 |
| `Cc1noc(C)c1CN1CCC2(CC1)CC(Oc1cccnc1)CO2` (stereo not shown) | 2.532 |
| `CC(C)Oc1ccc2c(NC(=O)[C@H](C)O)nn(CC(F)(F)F)c2c1` | 1.212 |
| `Cc1cnn(CCNCC(=O)N(C)C(C)c2ccccc2)c1` (stereo not shown) | 19.71 |
| `CCN1CC[C@@]2(C(=O)N(C)C)CCN(C(=O)Cc3ccccc3)CC[C@@H]12` | 0 |
| `CCN(CC)C(=O)c1cc(C2CCCN2C)ccn1` (stereo not shown) | 1.622 |
| `Cc1cnc(CCN(C)C(=O)c2cccc(C)c2O)s1` | 6.466 |
| `Cn1cc(C2CCCN2C(=O)c2ccc(NC3CC3)nc2)cn1` (stereo not shown) | 2.041 |
| `O=C1NCC(C(=O)N(Cc2ccc(C(F)(F)F)cc2)C2CC2)N1` (stereo not shown) | 4.545 |
| `COCCc1noc(CNC(C)(CO)C2CCCCC2)n1` (stereo not shown) | 1 |
| `O=C(NCc1nc[nH]n1)c1cc(COc2cccc(C(F)(F)F)c2)[nH]n1` | 11.11 |
| `Cc1nccc(N[C@H]2CN(C(=O)CN3CCOCC3)C[C@@H]2C(C)C)n1` | 1.442 |
| `CCN1CCN(C(=O)c2cc(-c3cccn3C)n[nH]2)[C@H]2CS(=O)(=O)C[C@H]21` | 6.098 |
| `Cc1cccc(CCC(=O)N2CCCC(c3cc(C(N)=O)[nH]n3)C2)c1` (stereo not shown) | -0.7519 |
| `CN1CCCC1CCn1ccnc1-c1ccc2ccccc2n1` (stereo not shown) | 17.92 |
| `O=S(=O)(c1cccs1)N1CCC(c2nc(-c3cccs3)no2)CC1` | -24.44 |
| `CSCC(C)(O)CNS(=O)(=O)c1cccc(C)c1` (stereo not shown) | 3.704 |
| `CC(C)Oc1ccc(CNC(=O)NCC(C)(C)C(N)=O)cc1F` | 5.539 |
| `CC(C)[C@H]1CN(Cc2ccccn2)C[C@@H]1NS(=O)(=O)C1CC1` | 4.972 |
| `Cc1cnn(CCNCc2cccnc2)c1` | -0.3759 |
| `CN(C)CCOCC1CN(C(=O)c2ccsc2)Cc2ccnn2C1` (stereo not shown) | 1.961 |
| `CCOC(=O)c1cnn(C2CCN(C(=O)CC(C)(C)C)CC2)c1N` | 2.212 |
| `O=C(NCCc1nccs1)C(c1ccccc1)n1cnnn1` (stereo not shown) | 4.124 |
| `CN(C(=O)c1ccnn1C)[C@@H]1CCC[C@@H](Oc2ccccc2)[C@@H]1O` | 3.731 |
| `CN1CC[C@H](N(Cc2ccccc2)Cc2ccccc2)C[C@H](O)C1` | 3.468 |
| `CCO[C@@H]1CCN(c2ccc(C)nn2)[C@@H]1Cc1cnn(C)c1` | 10.1 |
| `CC(O)(CNc1ccc(Cl)c(C#N)n1)c1ccccc1` (stereo not shown) | -0.5525 |
| `CN(Cc1n[nH]c(=O)n1Cc1cccs1)S(C)(=O)=O` | 5.366 |
| `NC(=O)c1cn(CC2CCC2)c(C2CC2)n1` | 7.772 |
| `CCCN(CCC)C(=O)c1cnn(C)c1C` | 7.937 |
| `Cc1csc(C2CCCCN2C(=O)COCc2nc(C)no2)n1` (stereo not shown) | 9.091 |
| `c1ccc(COC[C@]23COC[C@H]2CN(c2ncccn2)C3)nc1` | 0.9524 |
| `COc1ccc(C)cc1-n1ccc(C(=O)NCC2CCCOC2)n1` (stereo not shown) | 7.179 |
| `O=C(O)c1cc2c(nc1N1CCOCC1)CCN(C1CCOC1)CC2` (stereo not shown) | 4.301 |
| `Cc1c(F)cccc1CN1CCn2nc(CNC(=O)N(C)C)cc2C1` | -2.479 |
| `CC(C)(C)c1nnc(CN2CCN(C(=O)CC3CCCCC3)CC2)o1` | 7.882 |
| `Cc1nc(CN2CCCN(C(=O)c3c(C)oc(C)c3C)CC2)cs1` | 7.289 |
| `O=C(Nc1nncs1)N(Cc1cccc(O)c1)C1CC1` | 6.494 |
| `C1CCN(CCO[C@@H]2CC[C@H]3[C@H]2OCCN3CC2CCOCC2)C1` | 5.521 |
| `CCN1Cc2ccccc2N(C(=O)C2CCC2)CCC1=O` | 7.865 |
| `Cc1nn(C)c(C)c1NC(=O)CNc1cccc(CC(F)(F)F)c1` | 5.952 |
| `CN(CC(=O)NCCc1cc2ccccc2o1)S(C)(=O)=O` | 6.952 |
| `O=c1[nH]c(-c2ccncc2)nc2c1CCN(S(=O)(=O)N1CCCC1)C2` | 0.5181 |
| `Cc1cnc(N2CC[C@H]3[C@H](C[C@@H](CN(C)C)N3C)C2)nc1` | 0.5348 |
| `O=C(NCc1ccco1)N1CCC(n2cc(-c3ccccn3)nn2)CC1` | 9.524 |
| `Cc1cnn(CC2CCCCN2C(=O)c2ccccc2-n2cccn2)c1` (stereo not shown) | 4.871 |
| `COc1ccc(-c2noc(CN3CC(n4cc(C)cn4)C3)n2)cc1` | 4.598 |
| `CCC(C)NC(=O)c1cccc(CNCc2csc(C(C)C)n2)c1` (stereo not shown) | -3.067 |
| `Cc1c(NC(C)C(C)C)cccc1C(=O)NCc1nccn1C` (stereo not shown) | 5.172 |
| `CC(C)(C)c1noc(CN2CCCCC2Cn2cncn2)n1` (stereo not shown) | 4.142 |
| `CCN(CC)C(=O)CN1CCCC(c2nc(C)c3c(n2)N(C)CCC3)C1` (stereo not shown) | -0.7692 |
| `CN1CCN(c2cccc(Cl)c2CNCCS(C)(=O)=O)CC1` | -1.031 |
| `Cc1nc(CN2CCO[C@@H]3CN(Cc4ccccn4)CC[C@@H]3C2)cs1` | 9.091 |
| `CCC(CNC(=O)Cn1ccnc1)Oc1cccc(F)c1` (stereo not shown) | 4.217 |
| `c1cc(C2CCN(Cc3ccc4c(c3)OCO4)CC2)ccn1` | 9.453 |
| `Cn1cc(-c2nc(CN3CCOC(Cn4cncn4)C3)cs2)cn1` (stereo not shown) | 6.936 |
| `COC(C)(C)CNC(=O)N1CCC(n2ccc(C(F)(F)F)n2)CC1` | 6.748 |
| `CC(C)c1nc(CN(C)C2CCN(CCc3ccncc3)C2)no1` (stereo not shown) | 5.983 |
| `Cc1ccsc1[C@@H]1CCN(C(=O)CCCn2cncn2)C[C@H]1O` | 0.9901 |
| `O=S(=O)(Cc1ccc(F)c(Cl)c1)NC(CO)c1ccco1` (stereo not shown) | 5.172 |
| `CCCn1cnnc1CNC1CCSC1` (stereo not shown) | 3.191 |
| `Cc1cc(NC(=O)COC(=O)c2ccc(F)cc2Br)n(C)n1` | -1.657 |
| `Cn1nc(Cn2cccn2)c2c1CN(C1CCOC1)C2` (stereo not shown) | -13.79 |
| `Cn1ccc(C(=O)N2CCN(CC(O)C(C)(C)C)CC2)cc1=O` (stereo not shown) | 0.5634 |
| `Cc1n[nH]c(C)c1-c1cc(-c2cccc(O)c2)nc(N)c1C#N` | 5.941 |

For reference, 6 entries once more:

For CCc1ccc(C2CC(=O)Nc3c2c(=O)[nH]n3C(C)C)cc1 (stereo not shown) the result was -2.424%.
For Cn1cc(C2CCCN2C(=O)c2ccc(NC3CC3)nc2)cn1 (stereo not shown) the result was 2.041%.
For NC(=O)c1cn(CC2CCC2)c(C2CC2)n1 the result was 7.772%.
For c1cc(C2CCN(Cc3ccc4c(c3)OCO4)CC2)ccn1 the result was 9.453%.
For Cc1nn(C)c(C)c1NC(=O)CNc1cccc(CC(F)(F)F)c1 the result was 5.952%.
For N#Cc1cc(NC(=O)C2CC=CC2)ccc1N1CCC(O)CC1 the result was -2.5%.